The nature of the assay: qHTS Assay for Lipid Storage Modulators in Drosophila S3 Cells.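 On cell number change: cells counted by Cell Tracker Red CMTPX staining in the red channel.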 As to conditions: BODIPY lipid droplet fluorescence, 18-24 h; for cell number change: measured here: cell count max response, cells fed with added oleic acid. Put shortly:
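Laser-scanning cytometry quantifies lipid droplet accumulation (500–530 nm total intensity; droplet/cell object ratio) in oleic acid-fed (400 uM added) Drosophila S3 cells treated with a concentration series. 20 uM Triacsin C defined 100% inhibition.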
On the technique in general: In qHTS, concentration-response curves come from the screen itself.

[1] abbreviates: measured here: cell number channel AC50, cells fed with added oleic acid.
The mark [2] stands for this setting: measured here: lipid fluorescence (Fed channel) AC50, cells fed with added oleic acid.

SMILES strings stand for the structures. Where “and” joins values, the source holds several entries; their conditions need not be identical. Identical values can stand only once. The list shows a part of the results. These are further read-outs of the screen, such as a control signal, another cell line or another target. No call is given for them. Compounds called inactive in the main read-out are mostly missing here. Words in brackets tell the shape of the fitted curve; partial curves, single points and poor fits give uncertain potencies.

These results are taken from PubChem BioAssay AID2685 (National Center for Advancing Translational Sciences (NCATS), 2010).

The term AC50 denotes the concentration giving half of the maximal activity seen. Lower therefore signals activity at low concentration. In the case of `O=C(c1ccco1)N1N=C(c2ccco2)CC1c1ccc(Cl)cc1Cl` (stereo not given), the cell number change was -48.9%. Moreover, the half-maximal activity concentration (AC50) under setting [1] is 16.4 µM [falling, partial curve]. For the same compound, under setting [2], the concentration at half-maximal activity (AC50) was 4.11 µM [falling, full curve, poor fit].

Regarding `Cc1onc(-c2ccc(Cl)cc2Cl)c1-c1csc(N/N=C/c2ccccc2)n1`, the cell number change turned out to be 6.64%. Also, the half-maximal activity concentration (AC50) under setting [2] is 1.64 µM [rising, partial curve].

`C/C(=N/NS(=O)(=O)c1cccc([N+](=O)[O-])c1)c1ccncc1`: the AC50 under setting [2] was 0.517 µM [falling, single point].

As to `Cc1ccnc(NS(=O)(=O)c2ccc(NC(=O)c3ccc(S(=O)(=O)N4CCOCC4)cc3)cc2)n1`, the cell number change is -17.9%. Besides, the AC50 under setting [2] is 1.46 µM [falling, full curve, poor fit].

Take `CCN1C(=NCCOC)N[C@@H](CCc2ccccc2)[C@H](C(=O)OC)[C@H]1C`: the cell number change was -2.69% and 11.6%. In addition, under setting [2], the concentration at half-maximal activity (AC50) is 29.1 µM [rising, single point].

In the case of `COCCNC(=O)/C(C#N)=C/c1ccccc1Br`, the cell number change is -46.6%. Besides, the AC50 under setting [2] is 15.8 µM [falling, single point].

Take `Cc1ccc(Cl)cc1N1CCN(C(=O)c2ccc3c(c2)CCN3S(C)(=O)=O)CC1`: the cell number change turned out to be 12.5%.

Turning to `O=C(CN(C(=O)c1csnn1)c1ccc(Br)cc1)NC1CCCCC1`, the cell number change was 23.8%. Under setting [2], the AC50 is 29.1 µM [rising, single point].

Take `O=C(CSc1ccsc1[N+](=O)[O-])N1CCN(c2ccccn2)CC1`: the cell number change was 44.5%. Moreover, under setting [1], the AC50 was 4.61 µM [rising, full curve, poor fit].

For the compound `COc1ccccc1C(=O)N1CCN(C(=O)c2oc3ccc(C)cc3c2C)CC1`, the concentration at half-maximal activity (AC50) runs as follows: under setting [1], 0.58 µM [falling, single point]; under setting [2], 0.58 µM [rising, single point].

`O=C(O)Cc1ccc(NC(=O)c2ccc3c(c2)C(=O)N(Cc2ccco2)C3=O)cc1`: the cell number change turned out to be 9.19%. Moreover, the concentration at half-maximal activity (AC50) under setting [2] is 0.206 µM [rising, partial curve, poor fit].

Take `Cc1ccsc1C(=O)NN=C1CCCCCC1`: the cell number change was determined as 28.2%. Besides, the AC50 under setting [2] is 0.58 µM [rising, single point].

`COc1ccc(-c2noc(CN3CCN(c4ccccc4)CC3)n2)cc1`: the cell number change was found to be 49.4%. Also, the concentration at half-maximal activity (AC50) under setting [1] was 6.51 µM [rising, single point].

Regarding `O=C1c2cccnc2C(=O)N1Cc1ccc(F)cc1S(=O)(=O)NCc1ccco1`, the cell number change is 9.79%.

Regarding `Cc1ccc(C2=NN3C(C2)c2ccccc2OC32C(=O)Nc3ccccc32)cc1` (stereo not given), the cell number change is -37.1%. Further, the AC50 under setting [1] is 23.1 µM [falling, single point]. Moreover, the AC50 under setting [2] is 6.51 µM [rising, single point].

Regarding `O=C(NNC(=O)c1ccccc1Cl)c1csc(N2CCOCC2)n1`, the cell number change amounted to 23%.

Consider `COc1ccc(Cl)cc1NC(=O)COc1ccc2c(c1)OCO2`, for which the cell number change is 19.3%. Further, the concentration at half-maximal activity (AC50) under setting [1] is 0.326 µM [rising, full curve, poor fit]. Under setting [2], the concentration at half-maximal activity (AC50) is 0.58 µM [rising, full curve, poor fit].

`CCN1C(=O)[C@H]2[C@@H](c3ccc(C)cc3)N3C(=O)N(c4cccc(C)c4)C(=O)[C@@]3(Cc3ccccc3)[C@H]2C1=O`: the cell number change was -10%.

On to `COCCOc1nc2c(c(=O)n(C)c(=O)n2C)n1CCc1ccccc1`, for which the cell number change is -32.2%. Besides, the AC50 under setting [1] is 32.6 µM [falling, single point].

On to `CCOC(=O)c1ccc(-n2c(CN3CCC(C(N)=O)CC3)nc3ccc([N+](=O)[O-])cc3c2=O)cc1`, for which the cell number change was 14.5%. The AC50 under setting [1] is 1.84 µM [rising, partial curve]. Besides, the AC50 under setting [2] was 4.61 µM [rising, single point].

Regarding `COc1cc2[nH]c3c(Cl)ncnc3c2cc1OC`, the cell number change was found to be 26.2%. Under setting [1], the half-maximal activity concentration (AC50) was 4.11 µM [rising, single point]. In addition, under setting [2], the concentration at half-maximal activity (AC50) was 29.1 µM [rising, single point].

As for `Cc1ccc(C(=O)N2CCN(S(=O)(=O)c3ccccc3[N+](=O)[O-])CC2)o1`, the cell number change was 68.5%. Also, the concentration at half-maximal activity (AC50) under setting [1] is 14.6 µM [rising, partial curve]. The AC50 under setting [2] was 1.3 µM [falling, single point].

Take `CCCCc1ccc(/C=C2/C(=O)ON=C2c2ccccc2)s1`: the cell number change is 16.6%. Also, the AC50 under setting [1] is 0.731 µM [falling, single point]. The concentration at half-maximal activity (AC50) under setting [2] was 1.16 µM [falling, single point].

For `O=C(COc1ccc(/C=N/NS(=O)(=O)c2ccccc2)cc1)NCCc1ccccc1`, the cell number change was -26.6%. Further, the half-maximal activity concentration (AC50) under setting [2] was 18.4 µM [falling, single point].

With `COCCCNc1nc2c(c(=O)n(Cc3ccc(OC)cc3)c(=O)n2C)n1C`, the cell number change turned out to be 26.1%. Also, under setting [2], the AC50 was 13 µM [rising, partial curve, poor fit].

Consider `CCN1C(=O)C(=O)N(CC(=O)N(C)CC(=O)Nc2ccccc2Cl)C1=O`, for which the cell number change is 12.8%. Besides, the concentration at half-maximal activity (AC50) under setting [2] was 16.4 µM [falling, single point].

Regarding `Cc1cc(CC(=O)O)c(C)cc1CC(=O)O`, the cell number change turned out to be 3.66%. Further, the AC50 under setting [2] was 8.2 µM [rising, partial curve, poor fit].

Regarding `COc1ccc(S(N)(=O)=O)cc1C(=O)NCCCN1CCN(c2ccccc2OC)CC1`, the cell number change stood at 17.2%. Further, under setting [2], the concentration at half-maximal activity (AC50) is 0.291 µM [falling, full curve, poor fit].

For the compound `Cc1cc(C)cc(N(CC(=O)NC2CCCCC2)C(=O)CCCC(=O)Nc2ccccn2)c1`, the cell number change stood at 16.2%. The concentration at half-maximal activity (AC50) under setting [2] was 29.1 µM [rising, single point].

With `CC1CN(S(=O)(=O)c2cccs2)CC(C)O1` (stereo not given), the cell number change was -5.49%.

Regarding `O=S(=O)(c1ccc2c(c1)CCN2)N1CCCC1`, the cell number change was 2.32%. Also, under setting [2], the concentration at half-maximal activity (AC50) was 0.013 µM [rising, full curve, poor fit].

Consider `Cc1ccc(/C=N/NC(=O)c2nnn(-c3nonc3N)c2-c2cccs2)cc1`, for which, under setting [2], the AC50 is 18.4 µM [rising, partial curve].

As to `O=c1c(Br)c(N2CCCC2)cnn1-c1ccccc1`, the cell number change is -16.4%.

Turning to `COc1ccc2c(c1)c(=O)oc1c(C)c(OCc3ccc(C(=O)O)cc3)ccc12`, the cell number change was 16.5%. Further, the AC50 under setting [2] is 29.1 µM [rising, partial curve, poor fit].

As for `FC(F)(F)c1cccc(NC(=S)Nc2ccc(Cl)c(Cl)c2)c1`, the cell number change is -60%. For the same compound, the AC50 under setting [1] is 29.1 µM [falling, single point].

Take `COc1ccc(CCN=C(N)NS(=O)(=O)c2cccs2)cc1OC`: the cell number change was -9.97%. Further, under setting [2], the AC50 is 0.00461 µM [falling, full curve, poor fit].

Turning to `CCc1nc2nc(C)cc(Nc3cccc(C(F)(F)F)c3)n2n1`, the cell number change is -8.32%. Under setting [2], the AC50 is 2.91 µM [rising, partial curve].

In the case of `Cc1cccc(OCC(=O)Nc2ccc(N3CCN(C(=O)c4ccccc4)CC3)cc2)c1`, under setting [2], the half-maximal activity concentration (AC50) is 3.66 µM [rising, full curve].

As to `O=C1COc2ccc(C(=O)COC(=O)c3cccnc3Cl)cc2N1`, under setting [1], the AC50 is 2.06 µM [rising, partial curve, poor fit].

Take `CCCc1cc(-c2nc(-c3ccc(Cl)cc3)cs2)ccn1`: the cell number change was -25.9%. Moreover, under setting [2], the half-maximal activity concentration (AC50) was 16.4 µM [falling, single point].

In the case of `O=C(c1cc2ccccc2oc1=O)N1CCN(c2ncccn2)CC1`, the half-maximal activity concentration (AC50) under setting [2] is 6.51 µM [rising, single point].

`COc1ccc(CN(C(=O)CN2C(=O)c3ccccc3S2(=O)=O)C(C(=O)NCC2CCCO2)c2ccncc2)cc1` (stereo not given): the cell number change was found to be 23.8%. Further, under setting [1], the AC50 is 2.06 µM [falling, partial curve]. Moreover, under setting [2], the concentration at half-maximal activity (AC50) is 6.51 µM [falling, single point].

Regarding `CCOC(=O)c1nc(C)sc1-c1ccnn1S(=O)(=O)c1ccc(C)cc1`, the cell number change is -45.6%. Moreover, under setting [2], the AC50 was 20.6 µM [falling, single point].

Consider `O=C(O)CSC(=S)N1CCCCC1`, for which the cell number change is -26.5%. Further, the AC50 under setting [1] was 6.51 µM [rising, partial curve, poor fit]. The AC50 under setting [2] is 2.31 µM [rising, partial curve, poor fit].

With `O=C(Nc1cccc(Cl)c1)NC1CC2CCC1C2` (stereo not given), the cell number change is -23%. Besides, the concentration at half-maximal activity (AC50) under setting [2] is 29.1 µM [falling, single point].

As to `CC(=O)c1ccc(NC(=O)C2CC(=O)N(C(C)C)C2)cc1` (stereo not given), the cell number change is 27.4%. Moreover, the AC50 under setting [1] was 0.13 µM [falling, full curve, poor fit].

In the case of `COC(=O)c1cc(-c2ccc(Br)cc2)on1`, the cell number change is -12.8%.

On to `O=C(N/N=C/c1ccc(OC(=O)c2ccccc2Br)cc1)c1ccccn1`, for which the cell number change came to 36.2%. In addition, the AC50 under setting [1] is 3.66 µM [rising, partial curve, poor fit]. For the same compound, the concentration at half-maximal activity (AC50) under setting [2] was 2.31 µM [rising, partial curve].

`CCOc1ccccc1N1C(=O)CC(Nc2ccc(N3CCOCC3)cc2)C1=O` (stereo not given): the cell number change was -20.4%. In addition, under setting [2], the AC50 is 0.291 µM [rising, partial curve, poor fit].

In the case of `Cc1cccc(N=C2NN=C(c3ccccc3F)CS2)c1C`, the cell number change is 17.6%. Further, the concentration at half-maximal activity (AC50) under setting [2] is 0.731 µM [falling, single point].

Turning to `CC(=O)c1cnc2n(c1=O)CCS2`, the cell number change was -37.7%. The AC50 under setting [1] is 0.00517 µM [falling, full curve, poor fit]. The concentration at half-maximal activity (AC50) under setting [2] is 0.231 µM [falling, full curve].

As to `COC(=O)c1cc(=O)nc2sc3cc(OC)ccc3n12`, the cell number change is -1.09%. In addition, the concentration at half-maximal activity (AC50) under setting [2] is 2.06 µM [rising, partial curve].

Regarding `COc1ccc(C(=O)N(CC(=O)NC(C)(C)C)c2ccc3c(c2)OCCO3)cc1OC`, the cell number change is 10.2%. Moreover, under setting [2], the AC50 was 0.00517 µM [rising, full curve, poor fit].

Take `Cc1cccnc1NC(=O)CCc1c[nH]c2ccccc12`: the cell number change amounted to 0.549%. In addition, the AC50 under setting [2] was 0.0206 µM [rising, full curve, poor fit].

With `O=C(NC1CCCCC1)C(c1cccs1)N(Cc1cccs1)C(=O)c1ccco1` (stereo not given), the cell number change was 2.09%. Further, the concentration at half-maximal activity (AC50) under setting [2] is 29.1 µM [falling, single point].

For `O=C1CC(C(=O)Nc2ccc(Cl)cc2)n2ncnc2N1` (stereo not given), the cell number change is -43.8%. The concentration at half-maximal activity (AC50) under setting [1] is 23.1 µM [falling, single point].

`COc1ccc(-c2nnc(-c3cccnc3)o2)cc1OC`: the cell number change stood at 24.2%. Also, the AC50 under setting [2] is 23.1 µM [rising, single point].

For `O=C(Nc1cccc(Cl)c1)NC1(C(=O)NCc2cccs2)CCCCC1`, the concentration at half-maximal activity (AC50) was 6.51 µM [falling, single point] under setting [1] and 6.51 µM [falling, single point] under setting [2].
